Results are given in words; binding and its absence hold for the method and conditions named. In cells and extracts the contact can be indirect. Binding can be weak; no strength is given. Tags and fused reporters may be left off the sequences shown.

The chains behind the UniProt entries cited, without tags or fusion partners. Where a name states a change or a piece, a line headed by the entry shows the natural chain unless it says otherwise.
UniProt O60832: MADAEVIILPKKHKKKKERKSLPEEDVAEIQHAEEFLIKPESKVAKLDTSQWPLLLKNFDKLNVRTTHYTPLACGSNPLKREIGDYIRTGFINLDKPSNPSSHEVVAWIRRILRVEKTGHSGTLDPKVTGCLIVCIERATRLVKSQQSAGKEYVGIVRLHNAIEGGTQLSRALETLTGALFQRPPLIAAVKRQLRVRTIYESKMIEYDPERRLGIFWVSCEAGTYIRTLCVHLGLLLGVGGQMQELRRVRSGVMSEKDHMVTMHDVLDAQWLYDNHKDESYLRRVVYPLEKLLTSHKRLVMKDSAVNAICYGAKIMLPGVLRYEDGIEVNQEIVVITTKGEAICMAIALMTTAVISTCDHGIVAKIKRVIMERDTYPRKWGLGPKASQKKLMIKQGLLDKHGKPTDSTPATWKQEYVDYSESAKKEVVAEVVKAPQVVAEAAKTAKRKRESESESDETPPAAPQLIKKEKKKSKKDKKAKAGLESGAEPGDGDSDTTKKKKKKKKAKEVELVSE

For this assay, the target named is His6-tagged human DKC1 Δ22C (Sf9) (human) (UniProt O60832). Briefly: co-purification of co-expressed subunits (tandem affinity); Sf9 cells co-expressing His6-DKC1 (wild type or mutant), GAR1, FLAG-NHP2, NOP10 (wild type or R34W); Ni-NTA, Heparin Sepharose (1 M NaCl eluate), anti-FLAG agarose, mock or MNase treated, washed with 0.6 M NaCl, FLAG peptide elution; silver or Coomassie stain.

B1: FLAG-tagged NHP2 (Sf9) (protein, UniProt Q9NX24 1-153)
chain: MTKIKADPDGPEAQAEACSGERTYQELLVNQNPIAQPLASRRLTRKLYKCIKKAVKQKQIRRGVKEVQKFVNKGEKGIMVLAGDTLPIEVYCHLPVMCEDRNLPYVYIPSKTDLGAAAGSKRPTCVIMVKPHEEYQEAYDECLEEVQSLPLPL
Regarding B1, the binding result was “binds”.
